Consider 2 molecules from publication PMC8683410 (Translational Psychiatry, 2021).

The target in assay [1] is T1, His6-tagged human DISC1 C-region (residues 691-836) (human), Q9NRI5.
T1 chain: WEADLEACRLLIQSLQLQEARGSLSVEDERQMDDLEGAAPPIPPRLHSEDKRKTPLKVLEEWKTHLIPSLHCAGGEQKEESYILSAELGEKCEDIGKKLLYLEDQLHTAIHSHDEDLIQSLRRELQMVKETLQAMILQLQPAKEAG
The assay is described as follows: dynamic light scattering; freshly prepared (off-column) His6-C-region followed over hours at 20 °C; TBS; Fig. S1; both purified. As to conditions: remark: other sources report otherwise.

The target of assay [2] is T2, MBP-His6-fused human DISC1 C-region (residues 691-836) (human), Q9NRI5.
T2 chain: T1 chain
The assay is described as follows: ITC; no titration: heat flow of the spontaneous association of the protein solution monitored in the cell (iTC-200, 300 rpm); 10-50 µM at 37 °C, 10 µM at 20-60 °C; dH from the peak area normalised to the protein amount; both purified. The following applies: remark: other sources report otherwise.

Results are given in words; binding and its absence hold for the method and conditions named. Some entries that bind do so weakly or less than the wild type. Where a sequence is shown, tags or fusion partners need not be part of it.

B1: His6-tagged human DISC1 C-region (residues 691-836), Q9NRI5 691-836 (domain or fragment)
chain: T1 chain
Regarding B1, in assay [1], the binding result was “binds”.

B2: MBP-His6-fused human DISC1 C-region (residues 691-836), Q9NRI5 691-836 (domain or fragment)
chain: T1 chain
In the case of B2, the binding entry in assay [2] was “binds”.
